Data reported in US20160046703A1 (ORGENTEC DIAGNOSTIKA, published 2016).
Numbering of substitutions follows the chain as printed. No constants are given. Whether binding was seen depends on the method and setting. Some results given as binding are weak or reduced against the parent protein; the word gives no strength. One block for each binder: values may come before it.

The chains behind the UniProt entries cited, without tags or fusion partners. Residues count along the entry.
UniProt P02749, residues 20-345: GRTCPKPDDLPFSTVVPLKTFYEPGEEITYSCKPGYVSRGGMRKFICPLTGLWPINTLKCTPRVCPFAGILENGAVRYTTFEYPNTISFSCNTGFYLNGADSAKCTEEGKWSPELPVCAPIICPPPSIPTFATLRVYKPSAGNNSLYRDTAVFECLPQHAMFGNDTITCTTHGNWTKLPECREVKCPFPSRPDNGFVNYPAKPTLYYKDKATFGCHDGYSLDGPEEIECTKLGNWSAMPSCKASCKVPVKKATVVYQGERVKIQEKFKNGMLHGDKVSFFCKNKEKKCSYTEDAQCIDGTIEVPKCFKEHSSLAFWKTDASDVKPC

Biological target: β2-glycoprotein (UniProt P02749)
Assay: binding activity followed during purification

binding: binds
B1: single-chain multifunctional CAD-IgM-IgA-IgG modubody (designed binder, not shown: small tags and cut ends)
chain: LVPRGSDVLMTQTPLSLPVSLGDQASISCRSSQSIVHSNGNTYLEWYLQKPGQSPKLLIYKVSNRFSGVPDRFSGSGSGTDFTLKISRVEAEDLGVYYCFQGSHVPYTFGGGTKLEIKRTGSGSGGGGSGGGGSGGGGSSGGGGSGGGGSGGGGSGSGEVQLQQSGPELVKPGASVKISCKASGYTFTDYYMHWVRQRPGQGLEWIGEIYPGSGNTSYNEKFRGKATLTADKSSSTAYMQLSSLTSEDSAVYFCARGTLDYTMDYWGQGTSVTVSSGSGGGGSGGGGSGGGGSSGGGGSGGGGSGGGGSGSGQDTAIRVFAIPPSFASIFLTKSTKLTCLVTDLTTYDSVTISWTRQNGEAVKTHTSISESHPSATFSAVGEASISEDDWNSGERFTCTVTHTDLPSPLKQTISRPKGGSGGGGSGGGGSGGGGSSGGGGSGGGGSGGGGSGSGRPEVHLLPPPSEELALNELVTLTCLARGFSPKDVLVRWLQGSQELPREKYLTWASRQEPSQGTTTFAVTSILRVAAEDWKKGDTFSCMVGHEALPLAFTQKTIDRGSGGGGSGGGGSGGGGSSGGGGSGGGGSGGGGSGSGEPQVYTLPPSREEMTKNQVSLTCLVKGFYPSDIAVEWESNGQPENNYKTTPPVLDSDGSFFLYSKLTVDKSRWQQGNVFSCSVMHEALHNHYTQKSLSL

binding: binds
B3: single-chain CAD-IgG-CH3 modubody (designed binder, not shown: small tags and cut ends)
chain: LVPRGSDVLMTQTPLSLPVSLGDQASISCRSSQSIVHSNGNTYLEWYLQKPGQSPKLLIYKVSNRFSGVPDRFSGSGSGTDFTLKISRVEAEDLGVYYCFQGSHVPYTFGGGTKLEIKRTGSGSGGGGSGGGGSGGGGSSGGGGSGGGGSGGGGSGSGEVQLQQSGPELVKPGASVKISCKASGYTFTDYYMHWVRQRPGQGLEWIGEIYPGSGNTSYNEKFRGKATLTADKSSSTAYMQLSSLTSEDSAVYFCARGTLDYTMDYWGQGTSVTVSSGSGGGGSGGGGSGGGGSSGGGGSGGGGSGGGGSGSGEPQVYTLPPSREEMTKNQVSLTCLVKGFYPSDIAVEWESNGQPENNYKTTPPVLDSDGSFFLYSKLTVDKSRWQQGNVFSCSVMHEALHNHYTQKSLSL

Second part, the binder before the results:

B2: single-chain CAD-IgG-CH3-Knob02 modubody (designed binder)
chain: B3 chain with T334Y, T362Y, F373Y
notes: Domain order is VL-linker-VH-linker-IgG-CH3-Knob02, 44 kDa, made in E. coli; also called CAD-IgG-CH3-Knob32 (as misprinted once); not shown: RGS-6xHis tag from vector pQE-80L
binding: binds

B4: scFv-CAD β2-glycoprotein-binding module (artificial protein sequence scFv-RP-CAD-P) (scFv)
scFv: LVPRGSDVLMTQTPLSLPVSLGDQASISCRSSQSIVHSNGNTYLEWYLQKPGQSPKLLIYKVSNRFSGVPDRFSGSGSGTDFTLKISRVEAEDLGVYYCFQGSHVPYTFGGGTKLEIKRTGSGSGGGGSGGGGSGGGGSSGGGGSGGGGSGGGGSGSGEVQLQQSGPELVKPGASVKISCKASGYTFTDYYMHWVRQRPGQGLEWIGEIYPGSGNTSYNEKFRGKATLTADKSSSTAYMQLSSLTSEDSAVYFCARGTLDYTMDYWGQGTSVTVSS
notes: Expressed in E. coli from pQE-80L as a 30 kDa protein; also called CAD-scFv; scFV-CAD reaction module; not shown: RGS-6xHis tag from expression vector pQE-80L (detected with anti-RGS-6xHis antib)
binding: binds
